# Results of single-concentration screens

From ChEMBL document CHEMBL3988442, “University of Dundee, Small-Polar-MMV Screening Library” (2021).

Results are given as percent effect. How 0% and 100% were set is not recorded. Most values in the screen are low, and negative values occur. This is an unselected part of the compounds tested. Two or more numbers in one place are separate tests of the same structure; such repeats can differ widely.

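Cell assay of Leishmania donovani living inside macrophages; the read-out is not stated. Compounds at 30 µM. Higher reads as stronger inhibition (inferred: compounds with an IC50 in retests scored well above the rest). Size under these conditions: about 69,000 compounds, about 1,000 of them at 50% or above in at least one test.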

SMILES | Percent Effect
COc1ccc(-n2cc(CNC(=O)c3cscn3)nn2)cc1 | 15.18%
CC(C)CCN(C(=O)Nc1cccc(C(=O)N(C)C)c1)C1CC1 | -29.42%
COCC(=O)N1CCC(O)(CN2CCN(c3ccccc3)CC2)C1 (centres undefined) | 22.58%
CN(CCn1nc2ccccn2c1=O)CC(=O)NC1CC1 | 12.86%
[H][C@@]12CCC(=O)N(CCNC)[C@]1([H])CCN(c1ncc(F)cn1)C2 | 1.433%
NCc1cnn(-c2ccccc2C(=O)NCc2ccccn2)c1 | 11.11%
Cc1ccccc1-c1cc(C(=O)N2CCn3c(C)nnc3C2)[nH]n1 | -11.08%
COc1cccc(OCc2nnc3n2N=C(C(C)(C)C)CS3)c1 | 16.74%
O=C(CN1CCCCC1C1OCCO1)Nc1ccc(F)c(F)c1 (centres undefined) | 2.795%
Cc1cc(C)nc(NC2CCCN(CCCc3ccccc3)C2)n1 (centres undefined) | 12.96%
COCCNc1ncc(-c2onc(C)c2C)c(-c2ccco2)n1 | 9.4%
COC(=O)COc1cc(NCc2c(C)noc2C)c(Cl)cc1C | 56.06%
CCc1ccc(CN2CCc3[nH]nc(C(=O)N4CCNC(=O)C4)c3C2)o1 | 17.93%
CC(Cn1cccn1)NC(=O)Nc1ccccn1 (centres undefined) | -2.72%
Cc1nnsc1C(=O)N1CC(c2nc3ccccc3[nH]2)C1 | 35.93%
Cc1ccccc1CN(CCN(C)C)Cc1ncc[nH]1 | 14.98%
Cc1noc(C)c1CCC(=O)N1CCCN(C)CC1 | 30.39%
CN(C)c1nc2n(c(=O)n1)CCN2C(=O)Nc1ccc(Cl)cc1 | -22.41%
[H][C@]12CN(Cc3ccco3)CCN1C[C@H](c1ccccc1)[C@H]2C(=O)NC | -12.31%
Cc1cc(C[C@@H]2COC[C@@H]2NC(=O)CN2CCCCCC2)on1 | 42.95%
CCS(=O)(=O)N1CCC2(CCCN(c3ncc(F)cn3)C2)C1 (centres undefined) | -4.77%
CCCn1ncc(C2CC(=O)NCc3nc4sc(C)cn4c32)c1C (centres undefined) | 15.18%
CC(=O)N1CCC2(CCN(Cc3ccc(Cl)c(C(F)(F)F)c3)CC2)C1 | 13.71%
O=c1[nH][nH]cc1-c1ccnc(NCCCN2CCOCC2)n1 | 23.9% and 11.43%
Cc1cnn(C2CCCN(C(=O)c3sccc3-n3cnnn3)C2)c1 (centres undefined) | 13.53%
Cc1ncsc1-c1nnc(C2CCN(Cc3ccc(Cl)cc3)CC2)o1 | -24.88% and 0.9368%
CCc1ccccc1CN1CC[C@@H](NC(=O)c2cccnc2)[C@H](O)C1 | 33.79%
Cn1ccnc1CN1CCC2(CC1)CC(Oc1cccnc1)C2.O=C(O)C(F)(F)F.O=C(O)C(F)(F)F | -11.32%
Cc1cccc2c1nc(CCO)n2-c1ccc(NS(C)(=O)=O)nc1 | 18.33%
COC(=O)c1ccoc1CN(C)CC(=O)NC1CC1 | 20.86%
CCCn1nc(-c2nc(Cc3ccc(OC)cc3)no2)ccc1=O | 3.753%
c1cc(NCc2cscn2)cc(OCCN2CCCCC2)c1 | 4.062%
CSc1cc2c(cc1NC(=O)NCCn1ccnc1)OCCO2 | 2.353%
Cc1nccn1CC1CCCN1CCCc1nc(-c2cccs2)no1 (centres undefined) | 28.14%
CCCc1nnc(N2CCC(N3CCCCCC3)CC2)o1 | 31.42%
CCc1nn(C)c(Cl)c1CN1C[C@@H](NC(=O)N(C)C)[C@H](C(C)C)C1 | 11.23%
CC(=O)Nc1nc2c(s1)C(C)(C)Nc1ccccc1S2 | 9.446% and -8.938%
CSCCc1nc(C(C)C)nn1-c1ccncc1C | 8.363%
Cn1ccnc1CN1CCc2c(COCC3CC3)nn(C)c2C1 | 17.02%
Cc1cc(N2CCC(O)(CN(C)C(=O)CCN)CC2)c2cnccc2n1 | 12.16%
Cc1c(-c2cc(-c3cnn(C)c3C)n(CC(=O)NC3CC3)n2)cnn1C | 1.908%
CCn1cc(S(=O)(=O)N2CCCSc3ccccc32)cn1 | 27.02%
Cc1nc(CCN(C)C(=O)CCNC(=O)c2ccccc2F)no1 | -12.65%
Cc1cc(=O)n2ncnc2n1CC(O)COCc1ccccc1Cl (centres undefined) | 1.927%
Cc1noc(C)c1CCC(=O)N1CCCN(CC(N)=O)CC1 | 13.85%
Cc1nn(C)c(C)c1CCC(=O)NCc1cccnc1OC1CCCC1 | 29.27%
Cc1cc(N2CCC(Cc3cccnc3)C2)ncn1 (centres undefined) | 16.37%
N#CCCN(Cc1cccnc1)C(=O)c1ccc(OCC2CC2)cc1 | 40.86%
COCCNC(=O)CN(C)CCn1nc2ccccn2c1=O | -12.91%
CC(C)CC(=O)NC1CC2(CCN(CCF)CC2)Oc2ccccc21.O=C(O)C(F)(F)F (centres undefined) | 0.8573%
Cc1noc(C(C)C)c1C(=O)NS(=O)(=O)c1cccnc1 | -27.23%
CC(c1ncc(-c2ccccc2)o1)N1CCN(C(=O)N(C)C)CC1 (centres undefined) | -27.78%
Br.Cc1ccccc1OC1CCN(CC(=O)Nc2ccn(C)n2)CC1 | 4.783%
Cn1nc(C2CCCN2)c2c(C(=O)NC3CC3)cc(C3CC3)nc21 (centres undefined) | 8.328%
CS(=O)(=O)Nc1ccn(Cc2ccc(Cl)cc2)n1 | -59.93%
CCc1cc(C(F)(F)F)c2c(C)nn(CC(=O)O)c2n1 | -8.538%
Cc1nc2ccccc2n1Cc1cc(C(=O)NC2CCOC2)no1 (centres undefined) | 7.311%
CC(C)CNC(=O)CNc1c(NCc2ccco2)c(=O)c1=O | 25.84%
CC(SCc1ccc(Br)c2cccnc12)C(N)=O (centres undefined) | 16.7%
COCCN(Cc1sccc1C)c1nc(C)nc2sccc12 | 13.95%
Cc1ccc(O)c(CN2CCn3nc(C(=O)N4CCCC4)cc3C2)n1 | 8.007%

8 of the entries, repeated:

{"smiles": "CCn1cc(S(=O)(=O)N2CCCSc3ccccc32)cn1", "Percent Effect": 27.02}
{"smiles": "CC(Cn1cccn1)NC(=O)Nc1ccccn1", "stereo": "centres undefined", "Percent Effect": -2.72}
{"smiles": "CC(SCc1ccc(Br)c2cccnc12)C(N)=O", "stereo": "centres undefined", "Percent Effect": 16.7}
{"smiles": "NCc1cnn(-c2ccccc2C(=O)NCc2ccccn2)c1", "Percent Effect": 11.11}
{"smiles": "Cc1cnn(C2CCCN(C(=O)c3sccc3-n3cnnn3)C2)c1", "stereo": "centres undefined", "Percent Effect": 13.53}
{"smiles": "COc1ccc(-n2cc(CNC(=O)c3cscn3)nn2)cc1", "Percent Effect": 15.18}
{"smiles": "O=C(CN1CCCCC1C1OCCO1)Nc1ccc(F)c(F)c1", "stereo": "centres undefined", "Percent Effect": 2.795}
{"smiles": "Cc1nnsc1C(=O)N1CC(c2nc3ccccc3[nH]2)C1", "Percent Effect": 35.93}